# Experimental data taken from PubChem BioAssay (EPA / NIEHS).
# Inconclusive results, whose numbers are uncertain, are shown with a selection of clear calls. Potencies beside an inconclusive call are fits to weak or partial responses and may not hold up. The source made the active and inactive calls. How the source made its calls: active means hit-call score of the fitted dose curve at least 0.9, where 1 is the maximum; inconclusive means response in the unintended direction; inactive means score below 0.9.
# Read-out: organic anion transporter (SLCO1B1), SLCO1B1 (gene 10599)
# Experiment: CLD_SLCO1B1_48hr: CellzDirect (CLD) Gene Expression Assay for organic anion transporter (SLCO1B1) at 48 hours (AID 2283707)
# Description: CLD_48hr is a cell-based, multiplexed-readout assay that uses hepatocyte, a human liver primary cell, with measurements taken at 48 hours after chemical dosing in a 96-well plate.CLD_SLCO1B1_48hr is one of 16 assay component(s) measured or calculated from the CLD_48hr assay. It is designed to make measurements of mRNA induction, a form of inducible reporter, as detected with chemiluminescence signals by Quantitative Nuclease Protection Assay (qNPA) technology.Data from the assay component CLD_SLCO1B1_48hr was analyzed at the endpoint, CLD_SLCO1B1_48hr, in the positive analysis fitting direction relative to DMSO as the negative control and baseline of activity. Using a type of inducible reporter, gain-of-signal activity can be used to understand changes in the reporter gene as they relate to the gene SLCO1B1. Furthermore, this assay endpoint can be referred to as a primary readout. To generalize the intended target to other relatable targets, this assay endpoint is annotated to the transporter intended target family, where subfamily is organic anion transporter.
# Human hepatocyte cultures were treated daily for two consecutive days with fresh dosing solutions containing appropriate concentrations of the 320 ToxCast chemicals (chemical identities were blinded to CellzDirect and other ToxCast collaborators), vehicle control (0.2% DMSO), and positive control inducers as summarized in Table 1. Due to the large number of treatment groups and chemicals examined, the ToxCast chemicals were divided into two groups (spanning two independent cultures of hepatocytes from separate donor preparations (Hu778: ToxCast plates 1 and 2; Hu776: ToxCast plates 3 and 4). Each preparation of human hepatocyte cultures was treated with respective vehicle control, medium only control, set of six positive controls/reference chemicals for the five hepatic receptor pathways, and a subset of eight of the ToxCast chemicals (indoxacarb, pyrithiobac-sodium, norflurazon, cyhalofop-butyl, methomyl, thiram, acetochlor, and propiconazole). These replicate data, coupled with internal replicates designed within the blinded ToxCast chemical library, provided additional data to evaluate interindividual differences between hepatocyte preparations and their potential impact on chemical profiles.Cell morphology and integrity were evaluated using phase-contrast microscopy as an indicator of hepatocyte cell health (Tyson & Green, 1987). Cultures for each treatment group (i.e., media, vehicle [0.2% DMSO], positive control inducers [multiple concentrations], and the ToxCast chemicals [multiple concentrations]) were observed and cell morphology was assessed relative to vehicle control cultures at each harvest time point (0, 6, 24, or 48 h). […] Images were evaluated at the conclusion of the study to assess changes in cell integrity and account for the effects of chemical exposure on uncharacteristic changes in concentration-dependent gene expression profiles. The results from these determinations of apparent cytotoxicity were annotated (yes/no) alongside the corresponding qNPA data for reference.At the conclusion of each treatment period, hepatocyte cultures (96-well) were washed with 1 volume of HBSS, lysed by addition of 25 ul ArrayPlate lysis buffer (HTG, Tucson, AZ), and 70 ul/well of Denaturation Oil, denatured by incubation at 95C for 10 min, and frozen at approximately -70C until analysis by nuclease protection assay (qNPA) (Roberts et al., 2007). For qNPA analysis, cell lysates were thawed at 50C for approximately 30 min, qNPA probes were added, and samples were incubated at 95C for 10 min to begin the detection process by denaturing the target RNA, dissociating the duplexes and secondary structure hybridization. At the conclusion of the hybridization period, S1 nuclease reagent was added to each sample to digest all nonprotected nucleotides at 50C for 60-90 min. […]
Structure (SMILES),outcome,AC50
O=C1c2ccccc2C(=O)N1SC(Cl)(Cl)Cl,inactive,
CNC(=O)Oc1cccc2ccccc12,,inconclusive: 20 µM
CC[C@H](C)[C@H]1O[C@]2(C=C[C@@H]1C)C[C@@H]1C[C@@H](C/C=C(\C)[C@@H](O[C@H]3C[C@H](OC)[C@@H](O[C@H]4C[C@H](OC)[C@@H](O)[C@H](C)O4)[C@H](C)O3)[C@@H](C)/C=C/C=C3\CO[C@@H]4[C@H](O)C(C)=C[C@@H](C(=O)O1)[C@]34O)O2 (tested in a mixture with another compound),,inconclusive: 2 µM
CC(C)(C)C(O)/C(=C\c1ccc(Cl)cc1Cl)n1cncn1 (stereo not given),,inconclusive: 6.86 µM
COC(=O)C(C)Oc1ccc(Oc2ccc(Cl)cc2Cl)cc1 (stereo not given),inactive,inconclusive: 6.25 µM
CCC(=NOC/C=C/Cl)C1=C(O)CC(C2CCOCC2)CC1=O (stereo not given),inactive,
CCC(C)(NC(=O)c1cc(Cl)c(C)c(Cl)c1)C(=O)CCl (stereo not given),,inconclusive: 20 µM
CN(C)NC(=O)CCC(=O)O,inactive,
CCN(CC)c1nc(C)cc(OP(=S)(OC)OC)n1,,inconclusive: 20 µM
CCCN(CCOc1c(Cl)cc(Cl)cc1Cl)C(=O)n1ccnc1,,inconclusive: 2.21 µM
CSC1=N[C@@](C)(c2ccccc2)C(=O)N1Nc1ccccc1,,inconclusive: 20 µM
Cc1cc(C)nc(Nc2ccccc2)n1,,inconclusive: 20 µM
CC(C)Oc1cc(-n2nc(C(C)(C)C)oc2=O)c(Cl)cc1Cl,,inconclusive: 5.84 µM
CC(C)N(C(=O)COc1nnc(C(F)(F)F)s1)c1ccc(F)cc1,,inconclusive: 20 µM
COP(=S)(OC)Oc1ccc([N+](=O)[O-])cc1,inactive,
C#CCN1C(=O)COc2cc(F)c(N3C(=O)C4=C(CCCC4)C3=O)cc21,,inconclusive: 20 µM
O=C(O)COc1nc(Cl)c(Cl)cc1Cl,,inconclusive: 20 µM
CNC(=O)Oc1cccc2c1OC(C)(C)O2,,inconclusive: 3.97 µM
COC(=O)C=C(C)OP(=O)(OC)OC,,inconclusive: 0.0004 µM
C=CCC1=C(C)C(OC(=O)C2C(C=C(C)C)C2(C)C)CC1=O (stereo not given),,inconclusive: 20 µM

Structure (SMILES),outcome,AC50
Nc1c(Cl)cc([N+](=O)[O-])cc1Cl,inactive,
CNC(=O)N(C)c1nnc(C(C)(C)C)s1,inactive,
C=CCOC(=O)C(C)(C)OC(=O)c1cc(-n2c(=O)cc(C(F)(F)F)n(C)c2=O)ccc1Cl,,inconclusive: 36.5 µM
CN=C=S,,inconclusive: 20 µM
CN(C)C(=S)SSC(=S)N(C)C,,inconclusive: 20 µM
CCN(CC)C(=O)SCc1ccc(Cl)cc1,,inconclusive: 0.0343 µM
CN1CSC(=S)N(C)C1,,inconclusive: 0.0004 µM
COP(=S)(OC)Oc1ccc(SC)c(C)c1,,inconclusive: 32.2 µM
CCCOCC(=Nc1ccc(Cl)cc1C(F)(F)F)n1ccnc1,,inconclusive: 20 µM
COc1ccc(-c2ccccc2)cc1NNC(=O)OC(C)C,inactive,
COC(=O)c1c(C(F)F)nc(C(F)(F)F)c(C2=NCCS2)c1CC(C)C,,inconclusive: 3.97 µM
CCCCNC(=O)OCC#CI,,inconclusive: 20 µM
CC(C)N1C(=O)c2ccccc2NS1(=O)=O,inactive,
COP(=O)(OC)OC(Br)C(Cl)(Cl)Br (stereo not given),,inconclusive: 1.38 µM
CCC(C)(C)C(=O)OC1=C(c2ccc(Cl)cc2Cl)C(=O)OC12CCCCC2,,inconclusive: 20 µM
CS(=O)(=O)c1cc(C(F)(F)F)ccc1C(=O)c1cnoc1C1CC1,inactive,
CCOc1cc(Oc2ccc(C(F)(F)F)cc2Cl)ccc1[N+](=O)[O-],,inconclusive: 20 µM
CNC(=O)Oc1ccccc1OC(C)C,,inconclusive: 20 µM
CC(C)Oc1cccc(NC(=O)c2ccccc2C(F)(F)F)c1,,inconclusive: 20 µM

# Two records picked at random from those above:
Structure (SMILES),outcome,AC50
CNC(=O)Oc1ccccc1OC(C)C,,inconclusive: 20 µM
CN(C)NC(=O)CCC(=O)O,inactive,
